Assay results: patent US9517222B2, “Method for the treatment of senile dementia of the Alzheimer's type” (Phenomenome Discoveries Inc., priority 2007, dated 2016)
Some values come without a unit; they compare only within their column.

Columns and labels:
[1] = Serum ethanolamine phospholipid levels in human cohorts (dementia severity, post-mortem pathology, age) by flow-injection MS/MS
[2] = Serum ethanolamine phospholipid ratios to PtdEt 16:0/18:0 (M01) in human cohorts
[3] = serum, females, post mortem SDAT
[4] = serum, females, post mortem control

## CCCCCCCC/C=C\CCCCCCCC(=O)OC(COC(=O)CCCCCCCCCCCCCCC)COP(=O)(O)OCCN (centres unmarked) [Metabolite M02, PtdEt 16:0/18:1]
[1]; AD, All to CN, Male
  Ratio of serum levels: 0.845
[1]; ADAS 5-19 to CN, Male
  Ratio of serum levels: 0.898
[1]; ADAS 20-39 to 5-19, Male
  Ratio of serum levels: 0.908
[1]; ADAS 20-39 to CN, Male
  Ratio of serum levels: 0.816
[1]; ADAS 40-70 to 5-19, Male
  Ratio of serum levels: 0.768
[1]; ADAS 40-70 to 20-39, Male
  Ratio of serum levels: 0.846
[1]; ADAS 40-70 to CN, Male
  Ratio of serum levels: 0.690
[1]; Cognitive Normal, Female
  Serum level, Mean: 0.062
[1]; Cognitive Normal, Male
  Average serum level, Mean: 0.066
[1]; Post Mortem Ctl, Male
  Serum level, Mean: 0.046
[1]; Post Mortem SDAT Male
  Serum level, Mean: 0.026
[1]; Post mortem SDAT vs Control, Male
  Ratio of serum levels: 0.568
[1]; SDAT, ADAS 5-19, Female
  Serum level, Mean: 0.050
[1]; SDAT, ADAS 5-19, Male
  Average serum level, Mean: 0.060
[1]; SDAT, ADAS 20-39, Female
  Serum level, Mean: 0.057
[1]; SDAT, ADAS 20-39, Male
  Average serum level, Mean: 0.054
[1]; SDAT, ADAS 40-70, Female
  Serum level, Mean: 0.052
[1]; SDAT, ADAS 40-70, Male
  Average serum level, Mean: 0.046
[1]; SDAT_all, Female
  Serum level, Mean: 0.053
[1]; SDAT_all, Male
  Average serum level, Mean: 0.056
[1]; serum level ratio, females, ADAS 5-19 vs CN
  Ratio, ADAS 5-19 to CN, Female: 0.806
[1]; serum level ratio, females, ADAS 20-39 vs ADAS 5-19
  Ratio, ADAS 20-39 to 5-19, Female: 1.132
[1]; serum level ratio, females, ADAS 20-39 vs CN
  Ratio, ADAS 20-39 to CN, Female: 0.912
[1]; serum level ratio, females, ADAS 40-70 vs ADAS 5-19
  Ratio, ADAS 40-70 to 5-19, Female: 1.034
[1]; serum level ratio, females, ADAS 40-70 vs ADAS 20-39
  Ratio, ADAS 40-70 to 20-39, Female: 0.914
[1]; serum level ratio, females, ADAS 40-70 vs CN
  Ratio, ADAS 40-70 to CN, Female: 0.833
[1]; serum level ratio, females, age 50-59 vs 40-49
  Ratio, 50-59 vs. 40-49, Female: 0.838
[1]; serum level ratio, females, age 60-69 vs 40-49
  Ratio, 60-69 vs. 40-49, Female: 0.835
[1]; serum level ratio, females, age 70+ vs 40-49
  Ratio, 70+ vs. 40-49, Female: 0.812
[1]; serum level ratio, females, all AD vs cognitively normal
  Ratio, AD, All to CN, Female: 0.856
[1]; serum level ratio, females, autopsy AD vs control
  Ratio, Autopsy AD vs. Control, Female: 0.773
[1]; serum level ratio, males, age 50-59 vs 40-49
  Ratio, 50-59 vs. 40-49, Male: 0.998
[1]; serum level ratio, males, age 60-69 vs 40-49
  Ratio, 60-69 vs. 40-49, Male: 1.024
[1]; serum level ratio, males, age 70+ vs 40-49
  Ratio, 70+ vs. 40-49, Male: 0.965
[1]; serum, females, age 30-39
  Mean serum level, Age Ctl, 30-39, Female: 0.047
[1]; serum, females, age 40-49
  Mean serum level, Age Ctl, 40-49, Female: 0.069
[1]; serum, females, age 50-59
  Mean serum level, Age Ctl, 50-59, Female: 0.058
[1]; serum, females, age 60-69
  Mean serum level, Age Ctl, 60-69, Female: 0.058
[1]; serum, females, age 70+
  Mean serum level, Age Ctl, 70+, Female: 0.056
[1]; [3]
  Mean serum level, Post Mortem SDAT, Female: 0.048
[1]; [4]
  Mean serum level, Post Mortem Ctl, Female: 0.062
[1]; serum, males, age 30-39
  Mean serum level, Age Ctl, 30-39, Male: 0.056
[1]; serum, males, age 40-49
  Mean serum level, Age Ctl, 40-49, Male: 0.058
[1]; serum, males, age 50-59
  Mean serum level, Age Ctl, 50-59, Male: 0.058
[1]; serum, males, age 60-69
  Mean serum level, Age Ctl, 60-69, Male: 0.059
[1]; serum, males, age 70+
  Mean serum level, Age Ctl, 70+, Male: 0.056
[2]; AD, All to CN, Male
  Ratio of ethanolamine phospholipid ratios to M01 between cohorts: 0.803
[2]; ADAS 5-19 to CN, Male
  Ratio of ethanolamine phospholipid ratios to M01 between cohorts: 0.842
[2]; ADAS 20-39 to CN, Male
  Ratio of ethanolamine phospholipid ratios to M01 between cohorts: 0.807
[2]; ADAS 40-70 to CN, Male
  Ratio of ethanolamine phospholipid ratios to M01 between cohorts: 0.680
[2]; Cognitive Normal, Male, serum
  Average serum ethanolamine phospholipid ratio to M01, Mean: 0.564
[2]; SDAT, ADAS 5-19, Male, serum
  Average serum ethanolamine phospholipid ratio to M01, Mean: 0.475
[2]; SDAT, ADAS 20-39, Male, serum
  Average serum ethanolamine phospholipid ratio to M01, Mean: 0.455
[2]; SDAT, ADAS 40-70, Male, serum
  Average serum ethanolamine phospholipid ratio to M01, Mean: 0.383
[2]; SDAT_all, Male, serum
  Average serum ethanolamine phospholipid ratio to M01, Mean: 0.453
[2]; human serum, females aged 30-39
  Ethanolamine Phospholipid Ratio to M01, Mean, Age Ctl, 30-39, Female: 0.474
[2]; human serum, females aged 40-49
  Ethanolamine Phospholipid Ratio to M01, Mean, Age Ctl, 40-49, Female: 0.597
[2]; human serum, females aged 50-59
  Ethanolamine Phospholipid Ratio to M01, Mean, Age Ctl, 50-59, Female: 0.551
[2]; human serum, females aged 50-59 vs. females aged 40-49
  Ratio of Ethanolamine Phospholipid Ratio to M01, 50-59 vs. 40-49, Female: 0.923
[2]; human serum, females aged 60-69
  Ethanolamine Phospholipid Ratio to M01, Mean, Age Ctl, 60-69, Female: 0.460
[2]; human serum, females aged 60-69 vs. females aged 40-49
  Ratio of Ethanolamine Phospholipid Ratio to M01, 60-69 vs. 40-49, Female: 0.771
[2]; human serum, females aged 70+
  Ethanolamine Phospholipid Ratio to M01, Mean, Age Ctl, 70+_Female: 0.455
[2]; human serum, females aged 70+ vs. females aged 40-49
  Ratio of Ethanolamine Phospholipid Ratio to M01, 70+ vs. 40-49, Female: 0.763
[2]; human serum, males aged 50-59 vs. males aged 40-49
  Ratio of Ethanolamine Phospholipid Ratio to M01, 50-59 vs. 40-49, Male: 1.082
[2]; human serum, males aged 60-69 vs. males aged 40-49
  Ratio of Ethanolamine Phospholipid Ratio to M01, 60-69 vs. 40-49, Male: 0.903
[2]; human serum, males aged 70+ vs. males aged 40-49
  Ratio of Ethanolamine Phospholipid Ratio to M01, 70+ vs. 40-49, Male: 0.879
[2]; serum, females, ADAS 5-19 vs cognitive normal
  Ratio of ethanolamine phospholipid ratio to M01, ADAS 5-19 to CN, Female: 0.872
[2]; serum, females, ADAS 20-39 vs ADAS 5-19
  Ratio of ethanolamine phospholipid ratio to M01, ADAS 20-39 to 5-19, Female: 1.101
[2]; serum, females, ADAS 20-39 vs cognitive normal
  Ratio of ethanolamine phospholipid ratio to M01, ADAS 20-39 to CN, Female: 0.960
[2]; serum, females, ADAS 40-70 vs ADAS 5-19
  Ratio of ethanolamine phospholipid ratio to M01, ADAS 40-70 to 5-19, Female: 0.949
[2]; serum, females, ADAS 40-70 vs ADAS 20-39
  Ratio of ethanolamine phospholipid ratio to M01, ADAS 40-70 to 20-39, Female: 0.862
[2]; serum, females, ADAS 40-70 vs cognitive normal
  Ratio of ethanolamine phospholipid ratio to M01, ADAS 40-70 to CN, Female: 0.828
[2]; serum, females, SDAT ADAS 5-19
  Ethanolamine phospholipid ratio to M01, Mean, SDAT, ADAS 5-19, Female: 0.454
[2]; serum, females, SDAT ADAS 20-39
  Ethanolamine phospholipid ratio to M01, Mean, SDAT, ADAS 20-39, Female: 0.499
[2]; serum, females, SDAT ADAS 40-70
  Ethanolamine phospholipid ratio to M01, Mean, SDAT, ADAS 40-70, Female: 0.431
[2]; serum, females, all AD vs cognitive normal
  Ratio of ethanolamine phospholipid ratio to M01, AD, All to CN, Female: 0.891
[2]; serum, females, all SDAT
  Ethanolamine phospholipid ratio to M01, Mean, SDAT_all Female: 0.463
[2]; serum, females, autopsy AD vs post mortem control
  Ratio of ethanolamine phospholipid ratio to M01, Autopsy AD vs. Control, Female: 1.140
[2]; serum, females, cognitive normal
  Ethanolamine phospholipid ratio to M01, Mean, Cognitive Normal, Female: 0.520
[2]; [3]
  Ethanolamine phospholipid ratio to M01, Mean, Post Mortem SDAT Female: 0.367
[2]; [4]
  Ethanolamine phospholipid ratio to M01, Mean, Post Mortem Ctl, Female: 0.322
[2]; serum, males, SDAT ADAS 20-39 vs ADAS 5-19
  Ratio of ethanolamine phospholipid ratio to M01, ADAS 20-39 to 5-19, Male: 0.958
[2]; serum, males, SDAT ADAS 40-70 vs ADAS 5-19
  Ratio of ethanolamine phospholipid ratio to M01, ADAS 40-70 to 5-19, Male: 0.807
[2]; serum, males, SDAT ADAS 40-70 vs ADAS 20-39
  Ratio of ethanolamine phospholipid ratio to M01, ADAS 40-70 to 20-39, Male: 0.843
[2]; serum, males, age control 30-39
  Ethanolamine phospholipid ratio to M01, Mean, Age Ctl, 30-39, Male: 0.476
[2]; serum, males, age control 40-49
  Ethanolamine phospholipid ratio to M01, Mean, Age Ctl, 40-49, Male: 0.477
[2]; serum, males, age control 50-59
  Ethanolamine phospholipid ratio to M01, Mean, Age Ctl, 50-59, Male: 0.517
[2]; serum, males, age control 60-69
  Ethanolamine phospholipid ratio to M01, Mean, Age Ctl, 60-69, Male: 0.431
[2]; serum, males, age control 70+
  Ethanolamine phospholipid ratio to M01, Mean, Age Ctl, 70+_Male: 0.420
[2]; serum, males, post mortem SDAT
  Ethanolamine phospholipid ratio to M01, Mean, Post Mortem SDAT Male: 0.290
[2]; serum, males, post mortem SDAT vs post mortem control
  Ratio of ethanolamine phospholipid ratio to M01, SDAT vs Control (post mortem, males): 0.791
[2]; serum, males, post mortem control
  Ethanolamine phospholipid ratio to M01, Mean, Post Mortem Ctl, Male: 0.367
